Laboratory results: PubChem BioAssay AID602196 (INSERM, 2012)
Test: 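Modifiers of cisplatin sensitivity in A549 cells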. Cells: human A549 lung cancer cells. Knock-down reagent: siRNA pair against human genes. Time to read-out: 48 h transfection before cisplatin; time from cisplatin to read-out not stated. Treatment: cisplatin at a dose killing half of control-siRNA cells; exact dose and duration not given. Measurement: 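Cisplatin cell death as a shift from the 50% death seen with control siRNA; siRNAs toxic or growth-blocking alone scored 0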. Direction: two-siRNA summed score (-2 to +2): higher = both siRNAs protect from cisplatin killing; -2 means both sensitise; mean protection from cisplatin (shift in death) and protection from cisplatin (shift in death), siRNA C and protection from cisplatin (shift in death), siRNA D: higher = protection from cisplatin killing. Hit rule: 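siRNAs harmful alone (LDH or WST-1) get 0; others get +1 for less and -1 for more cisplatin killing; genes are active when the two siRNAs give the same sign, summing to ±2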. Meaning of the calls: active = both siRNAs shift cisplatin killing the same way; inactive = no consistent shift, or siRNA harmful alone.
Shown is one part, drawn at random, of about 23,000 deposited reagents. In the full data, 455 (2%) are marked active. 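Active includes both protection and sensitisation; some change values fall well beyond the stated -50 to +50 range.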 Not stated in the record: the amount of reagent.

| gene knocked down | two-siRNA summed score (-2 to +2) | mean protection from cisplatin (shift in death) (%) | protection from cisplatin (shift in death), siRNA C (%) | protection from cisplatin (shift in death), siRNA D (%) | Outcome |
| --- | --- | --- | --- | --- | --- |
| LOC390906 | 1 | 9.9 | 13.9 | 5.8 | inactive |
| LSM14A | 1 | 11.4 | 1 | 21.9 | inactive |
| RAB5C | 1 | 11.2 | 16 | 6.3 | inactive |
| ANTXR2 | 1 | 15.2 | 11.1 | 19.3 | inactive |
| ERLEC1 | 0 | 6.4 | 10.1 | 2.6 | inactive |
| SF1 | 0 | 6.8 | 9.8 | 3.8 | inactive |
| DYNLRB1 | 0 | 2.1 | 8.7 | -4.4 | inactive |
| APC | 0 | -0.3 | 2.6 | -3.3 | inactive |
| COLGALT1 | 0 | 4.3 | 9.2 | -0.6 | inactive |
| PPP2R2D | -1 | -13.1 | -4 | -22.1 | inactive |
| TLCD3B | 0 | 1 | 5 | -3.1 | inactive |
| EML5 | 0 | -7 | -6.1 | -7.8 | inactive |
| ZNF790 | 0 | 6.1 | 6.6 | 5.6 | inactive |
| NMRK2 | 1 | 21.8 | 22.3 | 21.4 | inactive |
| KIAA0592 | 0 | 9.5 | 17.5 | 1.4 | inactive |
| LINC00550 | 1 | 12 | 25.3 | -1.4 | inactive |
| C2orf69 | 0 | 2.6 | -10.1 | 15.2 | inactive |
| DMKN | 0 | 1.1 | 5.8 | -3.5 | inactive |
| BARX1 | 1 | 12.7 | 20.4 | 5 | inactive |
| LOC440951 | 0 | 5.8 | 6.7 | 5 | inactive |
| MRPL49 | 0 | -7.4 | -6 | -8.9 | inactive |
| SDC2 | 1 | 8 | 18.5 | -2.4 | inactive |
| LOC388189 | -1 | -4.2 | -9.1 | 0.7 | inactive |
| FLJ43808 | -1 | -4.1 | 5.4 | -13.5 | inactive |
| TMEM42 | 0 | 4.7 | 13.1 | -3.7 | inactive |
| IGSF10 | 1 | 12 | 18.2 | 5.7 | inactive |
| LYPD6 | 0 | 3.3 | 7 | -0.3 | inactive |
| LOC392177 | 0 | 1.3 | 1.9 | 0.7 | inactive |
| PCDHGA1 | 0 | 11.6 | 10.2 | 13 | inactive |
| AFAP1 | 0 | -1.6 | -1.6 | -1.5 | inactive |
| NPSR1-AS1 | 0 | 4.2 | 12.4 | -4 | inactive |
| PSAT1 | 0 | 8.3 | 10 | 6.7 | inactive |
| NIT2 | 1 | 16.1 | 38.2 | -6.1 | inactive |
| LOC440834 | 0 | 7.7 | 10.5 | 5 | inactive |
| RPS23 | 0 | 6.6 | 5.4 | 7.7 | inactive |
| RDH12 | 1 | 13.9 | 7.3 | 20.5 | inactive |
| CYP2U1 | 0 | 18.2 | 14.3 | 22.1 | inactive |
| CLEC1A | 0 | -18.7 | -18.3 | -19.1 | inactive |
| LOC389143 | 0 | -1 | -4.6 | 2.6 | inactive |
| VSX1 | 0 | 13.5 | 7.2 | 19.8 | inactive |
| LOC150519 (retired record) | 0 | 16.4 | 16 | 16.7 | inactive |
| THUMPD3 | 0 | 4.7 | 14.1 | -4.7 | inactive |
| PORCN | 0 | 1.3 | 2.7 | 0 | inactive |
| LOC340414 | 0 | 7.4 | 7.8 | 7 | inactive |
| P3H3 | 1 | 7.8 | 21.3 | -5.7 | inactive |
| CYP2D7 | 0 | -0.4 | 14.8 | -15.5 | inactive |
| AKAP19 | 0 | -2.7 | -10 | 4.5 | inactive |
| ULK3 | 1 | 3 | 13.8 | -7.9 | inactive |
| LOC441549 | 0 | 11.2 | 12.9 | 9.4 | inactive |
| LOC440152 | 0 | 9.7 | 5.5 | 13.9 | inactive |
| BSN | -2 | -16 | -15.5 | -16.4 | active |
| MRPS18A | 0 | 7.3 | 1 | 13.5 | inactive |
| ZNF676 | 1 | 9.2 | 22 | -3.6 | inactive |
| SEC24B | 0 | -0.4 | -4.2 | 3.3 | inactive |
| TOP1 | 0 | 3.5 | 1.4 | 5.5 | inactive |
| SLC25A17 | 0 | 5.9 | 1.9 | 9.8 | inactive |
| ATG12 | 1 | 12.5 | 18.9 | 6.1 | inactive |

No new results follow: 3 of the entries above.
| gene knocked down | two-siRNA summed score (-2 to +2) | mean protection from cisplatin (shift in death) (%) | protection from cisplatin (shift in death), siRNA C (%) | protection from cisplatin (shift in death), siRNA D (%) | Outcome |
| --- | --- | --- | --- | --- | --- |
| VSX1 | 0 | 13.5 | 7.2 | 19.8 | inactive |
| LOC150519 (retired record) | 0 | 16.4 | 16 | 16.7 | inactive |
| THUMPD3 | 0 | 4.7 | 14.1 | -4.7 | inactive |
